Results reported in article doi:10.1101/2025.10.24.684453.
These are yes or no findings as the source states them, for the method shown. In cells and extracts the contact can be indirect. Some binding calls cover weakened binding; strength is not graded here.

Chains of the proteins cited; added tags and fusions are not shown.
UniProt P12004: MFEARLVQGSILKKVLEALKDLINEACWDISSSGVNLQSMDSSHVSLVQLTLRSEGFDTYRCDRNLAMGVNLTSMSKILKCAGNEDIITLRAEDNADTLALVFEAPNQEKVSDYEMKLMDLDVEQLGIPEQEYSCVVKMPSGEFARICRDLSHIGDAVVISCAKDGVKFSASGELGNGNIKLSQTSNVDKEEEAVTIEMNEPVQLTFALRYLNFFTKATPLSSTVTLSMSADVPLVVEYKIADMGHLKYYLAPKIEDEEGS

Target: Flag-PCNA (UniProt P12004)
Test: co-IP; Flag-PCNA precipitated from lysate of transfected cells with anti-FLAG M2 agarose beads (4 °C, 4 h; 20 mM Tris-HCl pH 7.5, 150 mM NaCl, 0.5% NP-40 lysis buffer), eluted with 3x Flag peptide, immunoblot for XPF; cells treated with or without 10 μM FEN1 inhibitor LNT-1 for 16 h (more XPF with the inhibitor)

B1: XPF (enzyme, UniProt Q92889 1-916)
chain: MESGQPARRIAMAPLLEYERQLVLELLDTDGLVVCARGLGADRLLYHFLQLHCHPACLVLVLNTQPAEEEYFINQLKIEGVEHLPRRVTNEITSNSRYEVYTQGGVIFATSRILVVDFLTDRIPSDLITGILVYRAHRIIESCQEAFILRLFRQKNKRGFIKAFTDNAVAFDTGFCHVERVMRNLFVRKLYLWPRFHVAVNSFLEQHKPEVVEIHVSMTPTMLAIQTAILDILNACLKELKCHNPSLEVEDLSLENAIGKPFDKTIRHYLDPLWHQLGAKTKSLVQDLKILRTLLQYLSQYDCVTFLNLLESLRATEKAFGQNSGWLFLDSSTSMFINARARVYHLPDAKMSKKEKISEKMEIKEGEETKKELVLESNPKWEALTEVLKEIEAENKESEALGGPGQVLICASDDRTCSQLRDYITLGAEAFLLRLYRKTFEKDSKAEEVWMKFRKEDSSKRIRKSHKRPKDPQNKERASTKERTLKKKKRKLTLTQMVGKPEELEEEGDVEEGYRREISSSPESCPEEIKHEEFDVNLSSDAAFGILKEPLTIIHPLLGCSDPYALTRVLHEVEPRYVVLYDAELTFVRQLEIYRASRPGKPLRVYFLIYGGSTEEQRYLTALRKEKEAFEKLIREKASMVVPEEREGRDETNLDLVRGTASADVSTDTRKAGGQEQNGTQQSIVVDMREFRSELPSLIHRRGIDIEPVTLEVGDYILTPEMCVERKSISDLIGSLNNGRLYSQCISMSRYYKRPVLLIEFDPSKPFSLTSRGALFQEISSNDISSKLTLLTLHFPRLRILWCPSPHATAELFEELKQSKPQPDAATALAITADSETLPESEKYNPGPQDFLLKMPGVNAKNCRSLMHHVKNIAELAALSQDELTSILGNAANAKQLYDFIHTSFAEVVSKGKGKK
- binding: binds
